Publication doi:10.1101/2025.02.26.640373

Sequences of proteins named here, by UniProt entry; tags and fusion partners are left off. Residues count along the entry.
UniProt Q15388: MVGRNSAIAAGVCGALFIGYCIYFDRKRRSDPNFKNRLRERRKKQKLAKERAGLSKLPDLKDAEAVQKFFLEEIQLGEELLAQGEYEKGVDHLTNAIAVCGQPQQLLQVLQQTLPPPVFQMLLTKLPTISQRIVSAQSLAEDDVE
UniProt P38646, residues 47-679: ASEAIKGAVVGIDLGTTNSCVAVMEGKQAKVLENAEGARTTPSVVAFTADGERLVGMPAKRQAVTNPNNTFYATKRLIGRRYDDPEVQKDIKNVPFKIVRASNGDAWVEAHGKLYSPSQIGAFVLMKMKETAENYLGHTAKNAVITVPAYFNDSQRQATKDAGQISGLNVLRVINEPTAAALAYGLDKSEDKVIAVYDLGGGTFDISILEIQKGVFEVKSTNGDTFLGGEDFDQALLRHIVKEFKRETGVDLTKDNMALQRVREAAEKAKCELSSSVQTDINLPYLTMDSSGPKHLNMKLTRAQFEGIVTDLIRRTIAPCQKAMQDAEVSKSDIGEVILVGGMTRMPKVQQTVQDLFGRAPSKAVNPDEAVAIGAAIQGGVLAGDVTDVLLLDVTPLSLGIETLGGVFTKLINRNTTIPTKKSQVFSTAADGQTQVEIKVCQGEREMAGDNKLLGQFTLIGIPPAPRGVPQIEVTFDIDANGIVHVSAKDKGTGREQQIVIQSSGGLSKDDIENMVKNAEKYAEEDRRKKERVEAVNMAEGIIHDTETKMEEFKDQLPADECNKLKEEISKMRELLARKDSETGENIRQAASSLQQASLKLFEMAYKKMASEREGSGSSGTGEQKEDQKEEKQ

Key:
Experiment in all cases: proximity labelling; SHP2-TurboID variants against a TurboID-only control in SHP2 knock-out HEK 293 cells; exogenous biotin; biotinylated proteins enriched and identified by mass spectrometry; hits p<0.05 and log2 fold-change >1; cells unstimulated or stimulated with 100 ng/mL EGF; SHP2^WT also after 4 hours with 1 uM TNO155
SHP2^WT-TurboID = SHP2^WT-TurboID (UniProt Q06124)
SHP2^E76K-TurboID = SHP2^E76K-TurboID (UniProt Q06124)
SHP2^E139D-TurboID = SHP2^E139D-TurboID (UniProt Q06124)
SHP2^Y279C-TurboID = SHP2^Y279C-TurboID (UniProt Q06124)
SHP2^T42A-TurboID = SHP2^T42A-TurboID (UniProt Q06124)
SHP2^T507K-TurboID = SHP2^T507K-TurboID (UniProt Q06124)
SHP2^Q510K-TurboID = SHP2^Q510K-TurboID (UniProt Q06124)
SHP2^T52S-TurboID = SHP2^T52S-TurboID (UniProt Q06124)
SHP2^Q510E-TurboID = SHP2^Q510E-TurboID (UniProt Q06124)
SHP2^T468M-TurboID = SHP2^T468M-TurboID (UniProt Q06124)
SHP2^R138Q-TurboID = SHP2^R138Q-TurboID (UniProt Q06124)

binding (SHP2^WT-TurboID) | Substance | binding (SHP2^E76K-TurboID) | binding (SHP2^E139D-TurboID) | binding (SHP2^Y279C-TurboID) | binding (SHP2^T42A-TurboID) | binding (SHP2^T507K-TurboID) | binding (SHP2^Q510K-TurboID) | binding (SHP2^T52S-TurboID) | binding (SHP2^Q510E-TurboID) | binding (SHP2^T468M-TurboID) | binding (SHP2^R138Q-TurboID)
binds | PI3KR2 (from UniProt O00459 1-728) |  |  |  |  |  |  |  |  |  | 
no binding | Tom20 (from UniProt Q15388 1-145) |  |  |  |  |  |  |  |  |  | 

Substance | binding (SHP2^WT-TurboID) | binding (SHP2^E76K-TurboID) | binding (SHP2^E139D-TurboID) | binding (SHP2^Y279C-TurboID) | binding (SHP2^T42A-TurboID) | binding (SHP2^T507K-TurboID) | binding (SHP2^Q510K-TurboID) | binding (SHP2^T52S-TurboID) | binding (SHP2^Q510E-TurboID) | binding (SHP2^T468M-TurboID) | binding (SHP2^R138Q-TurboID)
mortalin (HSPA9) (from UniProt P38646 47-679) | no binding | no binding | no binding | no binding | no binding | no binding | no binding | no binding | no binding | no binding | no binding

No constants are given. Whether binding was seen depends on the method and setting. Binding seen in cells or lysates may run through a third protein. A yes stands for co-enrichment or nearness to the bait. Other partners may have been found. No binding means not detected with the bait.
